# Source: the supplement of paper PMC12823440, “Inhibitors supercharge kinase turnover through native proteolytic circuits” (Nature, 2025)
# Sequences of proteins named here, by UniProt entry; tags and fusion partners are left off. A change or cut given only in a name is not applied to a line headed by its entry.
# UniProt Q9UQM7, whole entry: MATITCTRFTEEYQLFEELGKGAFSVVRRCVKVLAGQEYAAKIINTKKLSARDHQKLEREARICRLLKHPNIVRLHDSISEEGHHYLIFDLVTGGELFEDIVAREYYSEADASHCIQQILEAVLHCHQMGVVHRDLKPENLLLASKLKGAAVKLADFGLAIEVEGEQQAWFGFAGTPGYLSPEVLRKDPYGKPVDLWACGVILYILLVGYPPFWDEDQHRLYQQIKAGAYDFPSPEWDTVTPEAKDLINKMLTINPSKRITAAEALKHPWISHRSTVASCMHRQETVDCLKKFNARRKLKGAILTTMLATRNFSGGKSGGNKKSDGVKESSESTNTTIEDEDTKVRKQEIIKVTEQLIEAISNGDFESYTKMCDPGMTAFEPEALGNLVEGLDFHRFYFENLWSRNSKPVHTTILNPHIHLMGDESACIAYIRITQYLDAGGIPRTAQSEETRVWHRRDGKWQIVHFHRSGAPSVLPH
# UniProt Q13555: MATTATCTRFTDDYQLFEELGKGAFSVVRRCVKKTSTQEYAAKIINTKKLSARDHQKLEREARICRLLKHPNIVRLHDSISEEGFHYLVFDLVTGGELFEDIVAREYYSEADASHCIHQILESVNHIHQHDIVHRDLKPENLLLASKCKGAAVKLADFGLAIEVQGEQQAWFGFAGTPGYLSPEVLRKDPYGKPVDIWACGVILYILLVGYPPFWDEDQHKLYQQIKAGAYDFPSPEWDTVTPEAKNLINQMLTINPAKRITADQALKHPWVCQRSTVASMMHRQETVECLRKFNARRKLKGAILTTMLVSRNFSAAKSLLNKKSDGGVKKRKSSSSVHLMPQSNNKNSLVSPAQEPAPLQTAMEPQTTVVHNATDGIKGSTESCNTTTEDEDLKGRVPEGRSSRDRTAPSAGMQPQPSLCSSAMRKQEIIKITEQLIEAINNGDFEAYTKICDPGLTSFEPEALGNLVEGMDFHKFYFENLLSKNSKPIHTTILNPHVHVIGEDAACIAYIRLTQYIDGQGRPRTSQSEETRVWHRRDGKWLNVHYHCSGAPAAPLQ
# UniProt Q15131: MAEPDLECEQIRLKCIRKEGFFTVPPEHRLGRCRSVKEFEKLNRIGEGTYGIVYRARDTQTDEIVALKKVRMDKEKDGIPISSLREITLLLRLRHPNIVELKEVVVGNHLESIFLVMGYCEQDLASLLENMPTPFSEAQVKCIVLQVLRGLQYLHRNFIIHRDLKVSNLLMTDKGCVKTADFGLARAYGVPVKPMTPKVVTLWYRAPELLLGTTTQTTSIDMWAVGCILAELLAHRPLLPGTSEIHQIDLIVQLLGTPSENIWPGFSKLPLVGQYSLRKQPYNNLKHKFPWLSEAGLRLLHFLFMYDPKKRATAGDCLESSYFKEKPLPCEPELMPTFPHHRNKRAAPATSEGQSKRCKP
# UniProt Q00526: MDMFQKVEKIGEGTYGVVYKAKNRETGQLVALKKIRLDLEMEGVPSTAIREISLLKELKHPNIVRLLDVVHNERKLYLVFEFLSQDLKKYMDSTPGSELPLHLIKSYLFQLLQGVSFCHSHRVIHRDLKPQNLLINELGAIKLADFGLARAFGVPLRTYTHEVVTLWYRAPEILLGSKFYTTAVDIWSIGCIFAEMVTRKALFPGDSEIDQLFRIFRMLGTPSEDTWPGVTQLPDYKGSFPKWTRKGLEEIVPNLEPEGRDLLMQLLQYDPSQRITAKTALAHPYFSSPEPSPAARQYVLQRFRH
# UniProt Q00534, whole entry: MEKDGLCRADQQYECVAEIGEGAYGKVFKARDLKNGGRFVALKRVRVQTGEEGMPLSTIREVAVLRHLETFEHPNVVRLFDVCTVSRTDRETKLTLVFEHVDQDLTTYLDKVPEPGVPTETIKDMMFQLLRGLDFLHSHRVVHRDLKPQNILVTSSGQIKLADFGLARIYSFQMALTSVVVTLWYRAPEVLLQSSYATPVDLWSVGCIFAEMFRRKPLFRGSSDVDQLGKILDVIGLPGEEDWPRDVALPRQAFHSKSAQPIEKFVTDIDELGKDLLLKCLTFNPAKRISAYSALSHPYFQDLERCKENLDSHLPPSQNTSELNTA
# UniProt O96017, whole entry: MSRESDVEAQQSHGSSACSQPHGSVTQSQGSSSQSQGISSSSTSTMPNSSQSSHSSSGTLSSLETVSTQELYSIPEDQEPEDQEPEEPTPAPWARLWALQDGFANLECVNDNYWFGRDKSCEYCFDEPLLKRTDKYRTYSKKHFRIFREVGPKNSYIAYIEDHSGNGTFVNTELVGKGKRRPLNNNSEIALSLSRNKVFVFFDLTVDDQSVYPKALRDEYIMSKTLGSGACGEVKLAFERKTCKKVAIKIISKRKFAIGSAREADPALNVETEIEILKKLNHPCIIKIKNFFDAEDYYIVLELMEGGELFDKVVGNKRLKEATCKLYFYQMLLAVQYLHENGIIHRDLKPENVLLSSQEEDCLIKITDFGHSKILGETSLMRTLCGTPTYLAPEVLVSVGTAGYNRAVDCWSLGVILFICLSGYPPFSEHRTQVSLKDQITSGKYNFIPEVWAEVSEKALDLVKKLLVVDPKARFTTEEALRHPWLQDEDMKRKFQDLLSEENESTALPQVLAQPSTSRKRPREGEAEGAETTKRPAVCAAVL
# UniProt P07333, whole entry: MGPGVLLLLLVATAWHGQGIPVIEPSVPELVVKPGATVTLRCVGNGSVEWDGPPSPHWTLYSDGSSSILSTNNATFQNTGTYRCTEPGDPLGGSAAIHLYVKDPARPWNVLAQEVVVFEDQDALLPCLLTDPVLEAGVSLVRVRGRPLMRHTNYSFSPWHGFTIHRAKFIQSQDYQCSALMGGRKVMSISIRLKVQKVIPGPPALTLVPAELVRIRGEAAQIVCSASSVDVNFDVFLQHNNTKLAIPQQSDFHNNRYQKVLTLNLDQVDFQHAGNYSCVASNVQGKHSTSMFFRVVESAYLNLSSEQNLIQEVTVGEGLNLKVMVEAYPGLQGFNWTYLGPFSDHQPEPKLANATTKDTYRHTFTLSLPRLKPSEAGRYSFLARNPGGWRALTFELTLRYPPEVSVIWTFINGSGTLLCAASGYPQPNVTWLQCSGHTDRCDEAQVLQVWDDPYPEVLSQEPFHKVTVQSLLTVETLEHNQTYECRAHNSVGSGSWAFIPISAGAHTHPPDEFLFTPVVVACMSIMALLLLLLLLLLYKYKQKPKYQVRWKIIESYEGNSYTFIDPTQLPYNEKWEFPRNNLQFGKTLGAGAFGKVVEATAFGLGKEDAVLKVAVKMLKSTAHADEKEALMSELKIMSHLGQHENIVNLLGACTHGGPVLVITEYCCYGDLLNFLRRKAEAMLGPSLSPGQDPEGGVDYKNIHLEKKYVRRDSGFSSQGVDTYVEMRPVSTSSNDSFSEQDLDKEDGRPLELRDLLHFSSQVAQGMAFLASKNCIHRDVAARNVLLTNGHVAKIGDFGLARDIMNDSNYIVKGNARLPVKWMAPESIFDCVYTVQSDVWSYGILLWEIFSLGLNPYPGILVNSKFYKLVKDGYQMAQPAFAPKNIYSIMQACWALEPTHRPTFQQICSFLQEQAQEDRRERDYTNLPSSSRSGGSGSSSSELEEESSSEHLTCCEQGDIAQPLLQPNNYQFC
# UniProt P48729: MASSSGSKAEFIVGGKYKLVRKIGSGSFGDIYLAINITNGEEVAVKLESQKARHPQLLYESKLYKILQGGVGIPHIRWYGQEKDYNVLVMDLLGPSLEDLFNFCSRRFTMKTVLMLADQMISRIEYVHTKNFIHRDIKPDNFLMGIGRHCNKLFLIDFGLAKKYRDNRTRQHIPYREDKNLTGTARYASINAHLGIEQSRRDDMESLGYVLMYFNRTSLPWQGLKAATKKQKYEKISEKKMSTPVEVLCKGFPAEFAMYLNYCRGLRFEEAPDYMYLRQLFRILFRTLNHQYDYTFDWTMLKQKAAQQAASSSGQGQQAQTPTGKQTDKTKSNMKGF
# UniProt P48730: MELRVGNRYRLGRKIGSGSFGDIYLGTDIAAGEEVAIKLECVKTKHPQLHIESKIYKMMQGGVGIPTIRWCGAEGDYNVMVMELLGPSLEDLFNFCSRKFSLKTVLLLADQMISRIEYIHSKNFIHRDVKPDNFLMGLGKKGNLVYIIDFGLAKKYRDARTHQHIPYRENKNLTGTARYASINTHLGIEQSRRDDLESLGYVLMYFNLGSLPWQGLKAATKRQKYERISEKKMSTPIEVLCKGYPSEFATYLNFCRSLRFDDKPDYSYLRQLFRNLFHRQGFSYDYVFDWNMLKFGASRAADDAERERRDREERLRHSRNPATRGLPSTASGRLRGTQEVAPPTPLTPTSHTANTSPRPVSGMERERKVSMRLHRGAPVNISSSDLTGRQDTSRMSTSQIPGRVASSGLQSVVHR
# UniProt Q08345: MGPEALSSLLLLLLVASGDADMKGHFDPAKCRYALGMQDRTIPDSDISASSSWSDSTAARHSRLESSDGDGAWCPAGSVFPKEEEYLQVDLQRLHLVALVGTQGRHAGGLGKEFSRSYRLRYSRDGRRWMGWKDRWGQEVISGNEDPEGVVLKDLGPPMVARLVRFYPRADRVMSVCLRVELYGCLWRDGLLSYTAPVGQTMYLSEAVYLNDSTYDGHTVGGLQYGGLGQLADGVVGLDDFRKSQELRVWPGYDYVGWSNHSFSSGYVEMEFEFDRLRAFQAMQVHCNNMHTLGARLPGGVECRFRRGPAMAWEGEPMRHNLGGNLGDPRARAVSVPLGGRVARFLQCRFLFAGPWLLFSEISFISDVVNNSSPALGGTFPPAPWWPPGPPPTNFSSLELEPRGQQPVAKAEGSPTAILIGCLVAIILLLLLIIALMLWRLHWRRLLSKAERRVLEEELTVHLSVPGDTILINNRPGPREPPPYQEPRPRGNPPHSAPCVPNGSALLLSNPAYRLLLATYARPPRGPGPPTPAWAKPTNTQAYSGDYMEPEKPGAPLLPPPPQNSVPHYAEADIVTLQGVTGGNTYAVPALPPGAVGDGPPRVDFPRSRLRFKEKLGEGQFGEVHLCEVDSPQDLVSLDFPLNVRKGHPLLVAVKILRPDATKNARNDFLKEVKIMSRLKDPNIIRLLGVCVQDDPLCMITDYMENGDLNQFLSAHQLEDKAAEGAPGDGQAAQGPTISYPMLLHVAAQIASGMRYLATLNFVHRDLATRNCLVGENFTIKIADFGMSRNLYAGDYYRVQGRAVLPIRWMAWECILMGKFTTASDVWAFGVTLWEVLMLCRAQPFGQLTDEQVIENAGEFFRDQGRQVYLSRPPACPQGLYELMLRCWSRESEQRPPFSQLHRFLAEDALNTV
# UniProt Q9Y463, whole entry, looked up: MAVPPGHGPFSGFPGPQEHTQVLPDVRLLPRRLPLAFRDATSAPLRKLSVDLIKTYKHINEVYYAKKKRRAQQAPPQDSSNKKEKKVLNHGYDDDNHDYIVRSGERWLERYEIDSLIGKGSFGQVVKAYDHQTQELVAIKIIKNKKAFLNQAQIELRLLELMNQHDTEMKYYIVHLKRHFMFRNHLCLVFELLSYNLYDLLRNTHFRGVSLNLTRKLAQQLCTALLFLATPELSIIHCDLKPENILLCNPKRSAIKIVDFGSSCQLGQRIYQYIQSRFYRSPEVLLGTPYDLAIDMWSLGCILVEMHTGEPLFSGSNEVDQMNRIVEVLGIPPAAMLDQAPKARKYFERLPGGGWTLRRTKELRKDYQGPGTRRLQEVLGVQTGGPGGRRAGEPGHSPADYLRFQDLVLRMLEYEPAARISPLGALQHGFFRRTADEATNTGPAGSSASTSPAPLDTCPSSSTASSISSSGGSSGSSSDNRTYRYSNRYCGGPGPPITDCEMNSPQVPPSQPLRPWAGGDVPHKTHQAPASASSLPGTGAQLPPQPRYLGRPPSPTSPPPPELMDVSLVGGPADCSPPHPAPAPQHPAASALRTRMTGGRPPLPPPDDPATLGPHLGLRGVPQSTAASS
# UniProt Q92630: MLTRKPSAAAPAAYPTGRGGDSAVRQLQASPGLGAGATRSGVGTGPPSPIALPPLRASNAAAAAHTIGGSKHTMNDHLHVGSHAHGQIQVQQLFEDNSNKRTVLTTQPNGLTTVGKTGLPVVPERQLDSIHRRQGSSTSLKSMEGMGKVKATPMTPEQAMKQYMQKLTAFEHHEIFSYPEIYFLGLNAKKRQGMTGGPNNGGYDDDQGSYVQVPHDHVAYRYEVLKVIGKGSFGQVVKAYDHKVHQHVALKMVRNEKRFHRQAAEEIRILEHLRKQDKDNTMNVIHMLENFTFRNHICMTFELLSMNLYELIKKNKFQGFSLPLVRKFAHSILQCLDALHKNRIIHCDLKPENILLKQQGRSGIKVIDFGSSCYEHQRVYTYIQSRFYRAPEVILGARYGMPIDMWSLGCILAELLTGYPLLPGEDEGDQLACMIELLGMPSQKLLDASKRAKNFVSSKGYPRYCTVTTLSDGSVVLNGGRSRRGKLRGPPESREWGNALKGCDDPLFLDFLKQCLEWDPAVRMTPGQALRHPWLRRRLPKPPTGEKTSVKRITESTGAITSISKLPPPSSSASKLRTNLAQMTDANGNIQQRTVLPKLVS
# This is one part of the list. Hit calls seldom repeat between salt and free forms of one compound.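 Kinases were expressed as nanoluciferase fusions in K562 cells and luminescence was read every 4 h between 2 and 18 h as percent of control, DMSO set to 100% and a positive control to 0%. A time point counts as decreased when the signal drops significantly (2 sigma). The hit call is the authors' own, does not follow from the count of time points alone, and its rule is not shown.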
# Legend:
# Assay in all cases: number of time points (of 5) at which kinase-Nluc abundance scored as decreased, DMSO-normalised (count); higher = more persistent destabilization
# Details in all cases: K562; 2-18 h
# [1] = target: CAMK2A (UniProt Q9UQM7)
# [2] = target: CAMK2G (UniProt Q13555)
# [3] = target: CDK10 (UniProt Q15131)
# [4] = target: CDK2 (UniProt P24941)
# [5] = target: CDK3 (UniProt Q00526)
# [6] = target: CDK5 (UniProt Q00535)
# [7] = target: CDK6 (UniProt Q00534)
# [8] = target: CHEK2 (UniProt O96017)
# [9] = target: CSF1R (UniProt P07333)
# [10] = target: CSK (UniProt P41240)
# [11] = target: CSNK1A1 (UniProt P48729)
# [12] = target: CSNK1D (UniProt P48730)
# [13] = target: DDR1 (UniProt Q08345)
# [14] = target: DYRK1B (UniProt Q9Y463)
# [15] = target: DYRK2 (UniProt Q92630)
# [16] = target: EGFR (UniProt P00533)
# [17] = target: EGFR_G719S (UniProt P00533)
# [18] = target: EGFR_G719S_T790M (UniProt P00533)
# [19] = target: EGFR_L718V (UniProt P00533)
# [20] = target: EGFR_L858R (UniProt P00533)
Compound,number of time points [1],number of time points [2],number of time points [3],number of time points [4],number of time points [5],number of time points [6],number of time points [7],number of time points [8],number of time points [9],number of time points [10],number of time points [11],number of time points [12],number of time points [13],number of time points [14],number of time points [15],number of time points [16],number of time points [17],number of time points [18],number of time points [19],number of time points [20]
COc1ccc(S(=O)(=O)Nc2cc(-c3c(O)ccc4ccccc34)c(O)c3ccccc23)cc1 (10 µM),0,0,0,0,0,0,0,0,0,0,0,0,0,0,0,0,0,0,0,0
CO[C@H]1C[C@@H]2CC[C@@H](C)[C@@](O)(O2)C(=O)C(=O)N2CCCC[C@H]2C(=O)O[C@H]([C@H](C)C[C@@H]2CC[C@@H](OCCO)[C@H](OC)C2)CC(=O)[C@H](C)/C=C(\C)[C@@H](O)[C@@H](OC)C(=O)[C@H](C)C[C@H](C)/C=C/C=C/C=C/1C [Everolimus] (10 µM),0,0,0,0,0,0,0,0,0,0,0,0,0,0,0,0,0,0,0,0
O=C(O)[C@H]1O[C@@H](Oc2cc3oc(-c4ccc(O)cc4)cc(=O)c3c(O)c2O)[C@H](O)[C@@H](O)[C@@H]1O [Scutellarin] (10 µM),0,0,0,0,0,0,0,0,0,0,0,0,0,0,0,0,0,0,0,0
C=C1C(=O)[C@@]23[C@H](O)C[C@@H]4C(C)(C)C(=O)CC[C@@]4(C)[C@@H]2CC[C@@H]1[C@H]3O [Glaucocalyxin A] (2.5 µM),0,0,0,0,0,0,0,0,0,0,0,0,0,0,0,0,0,0,0,0
NCC1CCC(CNc2nc(NCc3ccccc3OC(F)(F)F)ncc2[N+](=O)[O-])CC1 (stereo not given) [PKC-theta inhibitor] (10 µM),0,0,0,0,0,0,0,4,3,0,0,0,4,0,1,2,4,4,3,4
Cc1nc[nH]c1CN1CCN(C(=O)N[C@@H](CC(C)C)C(=O)O)[C@@H](Cc2ccccc2)C1=O (10 µM),0,0,0,0,0,0,0,0,0,0,0,0,0,0,0,0,0,0,0,0
Cc1cc(C(=O)NOCCO)c(Nc2ccc(I)cc2F)n(C)c1=O (10 µM),0,0,0,2,0,0,0,0,0,0,0,0,0,0,0,0,0,1,0,1
Cc1cc(Nc2cc(N)ncn2)c(=O)n2c1C(=O)NC21CCCCC1 [Tomivosertib] (10 µM),0,0,0,0,0,0,0,0,0,0,0,0,0,0,0,0,0,0,0,0
N#Cc1ccc(-c2cnc3ccc(-c4ccc(C(=O)N5CCOCC5)cc4)cn23)cc1 (10 µM),0,0,0,0,0,0,0,0,0,0,0,0,0,0,0,0,0,0,0,0
Cc1ccc(C)c(OCCn2cc(C(=O)O)c3ccccc32)c1 (10 µM),0,0,0,0,0,0,0,0,0,0,0,0,0,0,0,0,0,0,0,0
Cc1c(C(=O)Nc2ccc(Oc3ccnc4[nH]cc(-c5ccccc5)c34)c(F)c2)c(=O)n(-c2ccc(F)cc2)n1C (10 µM),0,0,0,0,0,0,0,0,0,0,0,0,0,0,3,0,0,0,0,0
NS(=O)(=O)c1ccc(Nc2nc(-c3cccc(-c4ccccc4)c3)c3[nH]cnc3n2)cc1 (10 µM),0,0,0,0,0,0,0,0,0,0,0,0,0,0,0,0,0,0,0,0
O=C(Nc1ccc(Cl)cc1)C1CCCN(C(=O)c2cc(C(F)(F)F)cc(C(F)(F)F)c2)C1 (stereo not given) (10 µM),0,1,0,0,0,0,1,1,0,0,2,0,5,0,0,2,1,0,0,0
Cc1cc(CSc2ccccc2C(=O)NCCNc2ccc(C(F)(F)F)cc2[N+](=O)[O-])on1 (10 µM),0,0,0,0,0,0,0,0,0,0,0,0,0,0,0,0,0,0,0,0
CC(C)n1c(=O)n(C)c2cnc3cc(F)c(-c4ccc(OCCCN5CCCCC5)nc4)cc3c21 (10 µM),0,0,0,0,0,0,0,0,0,0,0,0,0,4,0,0,0,0,0,0
Cc1c(C)c(NCC(=O)N(C)C2CCN(Cc3ccc(C(N)=O)cc3)CC2)c(C)c(C)c1N (10 µM),0,0,0,0,0,0,0,0,0,0,0,0,0,0,0,0,0,0,0,0
COC(=O)Nc1ccc(-c2nc(N3CCOCC3)c3cnn(C4CCN(C(=O)OC)CC4)c3n2)cc1 (10 µM),0,0,0,0,0,0,0,0,0,0,0,0,0,0,0,0,0,0,0,0
Nc1nc(N)c2nc(-c3cccc(O)c3)c(-c3cccc(O)c3)nc2n1 (10 µM),0,0,0,0,0,0,0,0,0,0,0,0,0,0,0,0,0,0,0,0
CN1CCC(CNc2ccc3ncc(-c4cccc(OC(F)(F)F)c4)n3n2)CC1 (2.5 µM),0,0,0,0,0,0,0,0,0,0,0,0,0,0,0,0,0,0,0,0
CN(C)c1ccc(-c2nc3ncc(Cl)c(N4CCN(CC(=O)Nc5nccs5)CC4)c3[nH]2)cc1 (2 µM),0,0,0,0,0,0,0,0,0,0,0,0,0,0,0,0,0,0,0,0
N#Cc1cnc2c(Cl)cc(NCc3cn(CCN4CCCCCC4)nn3)cc2c1Nc1ccc(F)c(Cl)c1 [Cot inhibitor-1] (10 µM),0,0,0,0,4,0,0,0,0,0,0,1,0,0,0,0,0,0,0,0
Cc1cc(O)c2c(c1)C(=O)c1cccc(O)c1C2=O [Chrysophanol] (2 µM),0,0,0,0,0,0,0,0,0,0,0,0,0,0,0,0,0,0,0,0

# Four entries out of the list, arranged by length of the SMILES, falling:
Compound,number of time points [1],number of time points [2],number of time points [3],number of time points [4],number of time points [5],number of time points [6],number of time points [7],number of time points [8],number of time points [9],number of time points [10],number of time points [11],number of time points [12],number of time points [13],number of time points [14],number of time points [15],number of time points [16],number of time points [17],number of time points [18],number of time points [19],number of time points [20]
C=C1C(=O)[C@@]23[C@H](O)C[C@@H]4C(C)(C)C(=O)CC[C@@]4(C)[C@@H]2CC[C@@H]1[C@H]3O [Glaucocalyxin A] (2.5 µM),0,0,0,0,0,0,0,0,0,0,0,0,0,0,0,0,0,0,0,0
NS(=O)(=O)c1ccc(Nc2nc(-c3cccc(-c4ccccc4)c3)c3[nH]cnc3n2)cc1 (10 µM),0,0,0,0,0,0,0,0,0,0,0,0,0,0,0,0,0,0,0,0
NCC1CCC(CNc2nc(NCc3ccccc3OC(F)(F)F)ncc2[N+](=O)[O-])CC1 (stereo not given) [PKC-theta inhibitor] (10 µM),0,0,0,0,0,0,0,4,3,0,0,0,4,0,1,2,4,4,3,4
Cc1cc(C(=O)NOCCO)c(Nc2ccc(I)cc2F)n(C)c1=O (10 µM),0,0,0,2,0,0,0,0,0,0,0,0,0,0,0,0,0,1,0,1
